The subject of this data set is primary rat forebrain neurons. Description: Neurocytotoxicity assay (MTT). Here is the method: The neurocytotoxicity assay of AAQMs was conducted as per Dow et al.; The antimalarial potential of 4-quinolinecarbinolamines may be limited due to neurotoxicity and cross-resistance in mefloquine-resistant Plasmodium falciparum strains; Chemother. (48) 2624-2632 (2004) and is incorporated herein, by reference. This assay utilizes primary rat forebrain neurons and is a multi-endpoint screen. […] The AAQMs outlined in Table 1 were screened at 10, 100 and 1000 μM in triplicate, and the reduction in viability observed was determined using the 3-(4,5-dimethylthiazol-2-yl)-2,5-diphenyltetrazolium bromide (MTT) assay as per Dow et al., discussed above. Approximate IC50 values were calculated on the basis of the level of inhibition observed at each concentration. […] IC50s were calculated using Prism. […] Neurons were exposed to DNQX (100 μM) or magnesium (12 mM) for 5 min, followed by mefloquine (25 μM) or WR069878 (250 μM) for 20 min after which reduction in cell viability was determined. […] The effects of mefloquine and WR069878 on neuronal calcium homeostasis were assessed utilizing confocal microscopy as per Dow et al, as discussed in Antimicrob Agents Chemother. […] Subsequent changes in neuronal calcium homeostasis were recorded as fluctuations in the emitted fluorescence of fluo-3-complexed calcium at 530 nm (excitation was 488 nm). […]

For `OC(c1cc(C(F)(F)F)nc2c(C(F)(F)F)cccc12)C1CCCCN1` (centres unmarked) [Mefloquine, reference compound], the “Therapeutic index relative to mefloquine” value stood at 1.0. Further, the “Therapeutic index (*1000)” value (neuron IC50 over TM91C235 IC50, *1000) worked out at 0.57.

Values taken from US20110092488A1, “Quninoline Methanol Compounds for the Treatment and Prevention of Parasitic Infections” (priority 2005, published 2011).
